Results as given in US7144988B2, “Method of structure-based drug design to create or improve modulators of IL-1 activity which bind to the interleukin-1 type 1 receptor” (Array Biopharma, Inc., priority 2002, dated 2006).
No constants are given. Whether binding was seen depends on the method and setting. Some entries that bind do so weakly or less than the wild type.

The chains behind the UniProt entries cited, without tags or fusion partners. Where a name states a change or a piece, a line headed by the entry shows the natural chain unless it says otherwise. Residues count along the entry.
UniProt P18510, residues 26-177: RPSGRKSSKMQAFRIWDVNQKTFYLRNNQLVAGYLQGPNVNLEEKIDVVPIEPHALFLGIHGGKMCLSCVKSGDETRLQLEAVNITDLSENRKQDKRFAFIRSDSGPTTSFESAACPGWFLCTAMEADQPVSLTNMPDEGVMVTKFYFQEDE
UniProt P14778: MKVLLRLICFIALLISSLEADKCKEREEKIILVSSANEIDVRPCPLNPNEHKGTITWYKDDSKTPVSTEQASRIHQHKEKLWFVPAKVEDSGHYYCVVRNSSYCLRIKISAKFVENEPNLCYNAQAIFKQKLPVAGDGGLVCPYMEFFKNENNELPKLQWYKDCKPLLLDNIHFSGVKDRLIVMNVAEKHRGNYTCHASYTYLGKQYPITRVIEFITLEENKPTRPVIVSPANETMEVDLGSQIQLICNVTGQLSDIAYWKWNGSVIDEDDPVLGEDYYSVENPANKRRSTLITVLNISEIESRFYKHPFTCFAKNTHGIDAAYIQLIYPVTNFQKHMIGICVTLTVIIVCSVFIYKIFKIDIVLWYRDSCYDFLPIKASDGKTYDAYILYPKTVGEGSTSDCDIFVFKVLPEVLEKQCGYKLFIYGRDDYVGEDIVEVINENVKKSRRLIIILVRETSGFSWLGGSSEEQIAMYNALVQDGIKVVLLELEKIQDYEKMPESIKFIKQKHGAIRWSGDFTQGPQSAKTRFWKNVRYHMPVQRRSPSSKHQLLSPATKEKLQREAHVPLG

Target: interleukin-1 receptor antagonist (IL-1ra) (UniProt P18510)
Assay: affinity chromatography: culture supernatant incubated with IL-1ra covalently bound to Affigel-15 resin, washed with PBS plus 0.5 M NaCl, eluted at pH 2.8

binding: binds
Substance: modified IL-1 type 1 receptor (IL1R2D) (from UniProt P14778 18-222)
